Read-outs that look alike come from different tables or passages of the source. This continues a long series; more values of the same kind are listed elsewhere.
System: E. coli
Type: cell-based, Escherichia coli
Settings: anaerobic
Protocol: For MIC evaluations, the final results are expressed in chemical agent concentrations determined by analysis of the stock solution by HPLC (i.e., see Subsection Mb).
The minimum inhibitory concentration (MIC) was determined anaerobically in a 96 well-plate format. […] Media supplements were added according to levels reported in the Supplements Table, where specified. Overnight cultures of strains were grown in triplicate in 5 mL LB (with antibiotic where appropriate). A 1% (v/v) inoculum was introduced into a 5 ml culture of M9 minimal media.

## O=C(O)CCO [3-HP, 3-hydroxypropionic acid]
BW25113, EZ Rich media, no supplement, versus M9 control
  % Increase Over Control: 150%
Strain BX_00311.0: BW25113 wild type + pSmart-LC-Kan-glyA-ORF, M9 + Kan 20 μg/mL
  % Increase Over Control: 20%
Strain BX_00321.0: BW25113 wild type + pK223-ct-his-thrA, M9 + Amp 100 μg/mL + 1 mM IPTG
  % Increase Over Control: 33%
Strain BX_00322.0: BW25113 wild type + pJ61-speFED, M9 + Kan 20 μg/mL
  % Increase Over Control: 67%
Strain BX_00323.0: BW25113 wild type + pJ61-aroG, M9 + Kan 20 μg/mL
  % Increase Over Control: 33%
Strain BX_00324.0: BW25113 wild type + pJ61-thrA, M9 + Kan 20 μg/mL
  % Increase Over Control: 33%
Strain BX_00325.0: BW25113 wild type + pJ61-asd, M9 + Kan 20 μg/mL
  % Increase Over Control: 33%
Strain BX_00326.0: BW25113 wild type + pJ61-ilvA, M9 + Kan 20 μg/mL
  % Increase Over Control: 33%
Strain BX_00327.0: BW25113 wild type + pJ61-cysM, M9 + Kan 20 μg/mL
  % Increase Over Control: 33%
Strain BX_00357.0: BW25113 wild type + pKK223-aroH*445, M9 + Amp 100 μg/mL + 1 mM IPTG
  % Increase Over Control: 33%
Strain BX_00358.0: BW25113 wild type + pKK223-aroH*447, M9 + Amp 100 μg/mL + 1 mM IPTG
  % Increase Over Control: 33%
Strain BX_00359.0: BW25113 wild type + pKK223-aroH*457, M9 + Amp 100 μg/mL + 1 mM IPTG
  % Increase Over Control: 33%
Strain BX_00360.0: BW25113 wild type + pACYC177(Kan only)-cynTS, M9 + Kan 20 μg/mL
  % Increase Over Control: 33%
Strain BX_00362.0: BW25113 wild type + pACYC177(Kan only)-aroH, M9 + Kan 20 μg/mL + 1 mM IPTG
  % Increase Over Control: 33%
Strain BX_00363.0: BW25113 wild type + pACYC177(Kan only)-speB, M9 + Kan 20 μg/mL
  % Increase Over Control: 33%
Strain BX_00364.0: BW25113 wild type + pACYC177(Kan only)-metE, M9 + Kan 20 μg/mL + 1 mM IPTG
  % Increase Over Control: 33%
Strain BX_00365.0: BW25113 wild type + pACYC177(Kan only)-metC, M9 + Kan 20 μg/mL
  % Increase Over Control: 33%
Strain BX_00368.0: BW25113 wild type + pBT-3-cynTS, M9 + Cm (20 μg/mL)
  % Increase Over Control: 33%

— patent US9388419B2 (The Regents of the University of Colorado, a body corporate, priority 2009, dated 2016)
